# Source: PubChem BioAssay AID2685 (National Center for Advancing Translational Sciences (NCATS), 2010)
# Some of the results follow. Further columns of the screen follow, without active or inactive calls. Most of these compounds were active or inconclusive in the main read-out, so they are no random draw. The note in brackets gives the kind of curve behind each potency; many fits are weak.
# Experiment: qHTS Assay for Lipid Storage Modulators in Drosophila S3 Cells;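 for cell number change: cells counted by Cell Tracker Red CMTPX staining in the red channel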
# Conditions: BODIPY lipid droplet fluorescence, 18-24 h; for cell number change: measured here: cell count max response, cells fed with added oleic acid
# In short: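 Laser-scanning cytometry quantifies lipid droplet accumulation (500–530 nm total intensity; droplet/cell object ratio) in oleic acid-fed (400 uM added) Drosophila S3 cells treated with a concentration series. 20 uM Triacsin C defined 100% inhibition.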
# [1] = measured here: lipid fluorescence (Fed channel) AC50, cells fed with added oleic acid
# [2] = measured here: cell number channel AC50, cells fed with added oleic acid
Structure (SMILES),cell number change [%],AC50 [1],AC50 [2]
OC1O[C@H](c2ccc3c(c2)OCO3)[C@H]2CO[C@H](c3ccc4c(c3)OCO4)[C@@H]12 (stereo not given in full),26,"0.517 µM [rising, full curve, poor fit]",
C=CCN1CCN(C(=O)CCCc2ccccc2)CC1,12.2,"2.31 µM [rising, partial curve, poor fit]",
CNC(=O)c1cc2c(=O)n3cc(C)ccc3nc2n(C(C)C)c1=N,-1.04,,
CCOc1ccc(CCNC(=O)COC(=O)c2cc(OC)c(OC)c(OC)c2)cc1OCC,-41,"29.1 µM [falling, single point]","29.1 µM [falling, single point]"
O=C(Cn1cc(C(F)(F)F)ccc1=O)Nc1cc(S(=O)(=O)N2CCOCC2)ccc1Cl,16.9,,
Cc1sc2nc(SCC(=O)O)[nH]c(=O)c2c1C,-11.5,"4.61 µM [falling, full curve, poor fit]",
COc1ccc([N+](=O)[O-])cc1N(CC(O)Cn1nnc2ccccc21)S(=O)(=O)c1ccc(C)cc1 (stereo not given),-17.4,,"0.103 µM [falling, full curve, poor fit]"
O=C(O)CC/C(=N/NC(=O)c1ccc(-c2ccccc2)cc1)c1ccccc1,12.9,,"6.51 µM [rising, partial curve]"
COC(=O)c1ccccc1SC1CC(=O)N(c2cccc(C)c2)C1=O (stereo not given),-11.5,"0.82 µM [falling, full curve]",
COc1ccc(NC(=S)Nc2ccc3nsnc3c2)cc1,-23.4,"0.411 µM [rising, full curve, poor fit]",
COc1ccc(OC)c(N(CC(=O)NCc2ccncc2)S(C)(=O)=O)c1,-1.08,"6.51 µM [falling, single point]",
COc1ccc(OC)c2c1cc(C(=O)N[C@@H](Cc1ccccc1)C(=O)O)n2C,,"18.4 µM [rising, single point]",
Cc1c(NC(=O)Nc2cccc(Cl)c2)c(=O)n(-c2ccccc2)n1C,-45.5,"2.06 µM [falling, single point]","14.6 µM [falling, partial curve, poor fit]"
Cc1cc(C)c(-c2cc(C)nc3ncnn23)c(C)c1,,,"0.291 µM [falling, full curve, poor fit]"
CNC(=O)COC(=O)Cc1ccc(Cl)cc1,-10.3,"4.11 µM [rising, single point]",
COCCNC(=O)c1c(N)n(-c2cccc(C)c2)c2nc3ccccc3nc12,-74.3,"29.1 µM [falling, single point]","25.9 µM [falling, partial curve]"
O=C(NCCCn1ccnc1)c1nn2c(C(F)(F)F)cc(-c3ccc(Br)cc3)nc2c1Cl,-47.7,"1.84 µM [falling, partial curve]","29.1 µM [falling, single point]"
CCC(CC)c1nnc(NC(=O)c2ccc(N3CCCCC3)c([N+](=O)[O-])c2)s1,-65.2,"29.1 µM [falling, single point]","29.1 µM [falling, single point]"
O=C(CSc1nc(O)c(C(c2ccccc2)c2ccccc2)c(=O)[nH]1)N1CCOCC1,-12.5,,
Cc1cccc(NC(=O)CN2CCN(C(=O)c3c(C)nn(Cc4ccccc4)c3C)CC2)c1C,-20.6,,

# Two records picked at random from those above:
Structure (SMILES),cell number change [%],AC50 [1],AC50 [2]
O=C(NCCCn1ccnc1)c1nn2c(C(F)(F)F)cc(-c3ccc(Br)cc3)nc2c1Cl,-47.7,"1.84 µM [falling, partial curve]","29.1 µM [falling, single point]"
CCOc1ccc(CCNC(=O)COC(=O)c2cc(OC)c(OC)c(OC)c2)cc1OCC,-41,"29.1 µM [falling, single point]","29.1 µM [falling, single point]"

# Additional structures follow.

Structure (SMILES),cell number change [%],AC50 [1],AC50 [2]
Cc1nc2ccccn2c1C(=O)C(=O)Nc1cc(F)ccc1F,,,"4.61 µM [falling, partial curve]"
COc1ccc(C2NC(=O)c3n[nH]c(C)c32)c(OC)c1 (stereo not given),-3.35,,
Cn1c(NC(=O)c2cccs2)c(-c2cccs2)c(=O)c2ccccc21,3.63,"1.16 µM [rising, full curve, poor fit]",
c1ccc2c(c1)OCC(c1nn3c(Cn4nnc5ccccc54)nnc3s1)O2 (stereo not given),,"0.731 µM [rising, single point]","2.06 µM [rising, partial curve]"
CC(=O)c1ccc(N2CCN(C(=O)CCCn3c(=O)[nH]c4ccc(Br)cc4c3=O)CC2)cc1,-12.3,,"0.13 µM [rising, full curve]"
COc1ccccc1N1CCN(C(=O)C2CC=CCC2C(=O)O)CC1 (stereo not given),5.75,"0.731 µM [falling, single point]",
COc1ccc(-n2c(SCCC#N)nnc2-c2cc(Cl)ccc2OC)cc1Cl,-9.78,"11.6 µM [rising, single point]",
Cc1ccc(C(=O)NNC(=S)NCC2CCCO2)cc1[N+](=O)[O-] (stereo not given),25.1,,
CC(C)(C)OC(=O)N1CCC(C(=O)N2CCOCC2)CC1,-14,"0.146 µM [falling, full curve, poor fit]",
Cc1ccc2c(c1)C(c1ccc(F)cc1)N(C(=O)c1ccc(S(=O)(=O)N(C)C)cc1)CC(=O)N2 (stereo not given),,"0.461 µM [rising, full curve, poor fit]",
CC1CCCC(NC(=O)CN(C)CC(=O)Nc2cccc(F)c2)C1C (stereo not given),-20.3,"6.51 µM [falling, single point]","4.11 µM [falling, single point]"
Cc1nc2ccccc2n1CCCOc1ccccc1,-20.1,"29.1 µM [falling, single point]",
Cc1cc(Cl)ccc1NC(=S)N1CCN(C(=O)c2ccco2)CC1,45.7,,"25.9 µM [rising, single point]"
Cc1nc2ccc(Br)cc2c2c1CC(CO)O2 (stereo not given),14.3,"0.0731 µM [rising, full curve, poor fit]",
COc1ccc(-c2csc(Nc3ncccc3C)n2)cc1,-24,"9.2 µM [falling, partial curve, poor fit]",
Cn1c2ccc(F)cc2c2ncn(CCCN(CCO)CCO)c(=O)c21,4.06,,
O=C1C(=O)N(CCN2CCOCC2)C(c2ccc(Cl)cc2)/C1=C(/O)c1ccc(S(=O)(=O)N2CCOCC2)cc1 (stereo not given),11.3,"29.1 µM [rising, single point]",
COc1ccc(CNC(=O)COC(=O)c2cc(-c3cccs3)nc3ccccc23)cc1OC,,"0.13 µM [rising, full curve, poor fit]","0.116 µM [rising, full curve, poor fit]"
Cc1cc(NC(=O)c2ccc(Cl)cc2)n(-c2ccccc2)n1,13.7,"10.3 µM [rising, partial curve]",
COc1ccc(CN2C(=O)CS(=O)CC2=O)cc1OC,-69.3,"20.6 µM [falling, partial curve]","8.2 µM [falling, partial curve]"

Structure (SMILES),cell number change [%],AC50 [1],AC50 [2]
Cc1nnc2sc(-c3ccc(N(C)C)cc3)nn2c1=O,-30.6,,"0.184 µM [falling, full curve, poor fit]"
CC(C(=O)NC1CCCC1)N(Cc1ccc2c(c1)OCO2)C(=O)c1snc(C(N)=O)c1N (stereo not given),-14.1,,
COc1ccc(/C=C(\NC(=O)c2cccs2)C(=O)NCc2ccco2)cc1OC,-61.2,"16.4 µM [falling, partial curve]","1.3 µM [falling, full curve]"
O=C(Cc1n[nH]c(=O)c2ccccc12)OCC(=O)c1ccc(F)cc1,14.5,,
Cc1ccccc1-n1ncc2c1CC(C)(C)CC2NC(=O)C1CCC1 (stereo not given),,,"1.64 µM [rising, single point]"
CCC(=O)NC(c1ccc(OC)c(OC)c1)c1cc(Cl)c2cccnc2c1O (stereo not given),-34.9,"16.4 µM [falling, partial curve, poor fit]","10.3 µM [falling, partial curve, poor fit]"
CS(=O)(=O)N(CC(=O)N1CCN(c2ccccc2F)CC1)c1cccc(C(F)(F)F)c1,-16.9,"2.06 µM [falling, single point]",
COc1cc(C=O)ccc1OC(=O)c1ccc(C(C)C)cc1,-42.2,"6.51 µM [falling, single point]","6.51 µM [falling, single point]"
O=C1CNC(=S)N1Cc1ccc(Cl)cc1,-1.3,"0.00461 µM [falling, full curve, poor fit]",
COc1ccc(C(=O)COC(=O)CNC(=O)c2cccc(OC(F)F)c2)cc1,,"4.11 µM [falling, partial curve]","1.03 µM [falling, partial curve]"
c1ccc2c(-c3nc(-c4ccncc4)no3)cccc2c1,-27.9,"29.1 µM [falling, single point]",
COCCCNC(=S)Nc1cccc2ncccc12,-47.1,,
COc1ccc(OCc2nn3c(-c4cccc(OC)c4)nnc3s2)cc1,-12.5,"0.092 µM [falling, single point]",
CCn1c(SCC(=O)NCc2ccc3c(c2)OCO3)nnc1-c1ccco1,29.5,"1.3 µM [falling, full curve]",
c1ccc(CCNCCOc2ccccc2)cc1,9.09,,
CCC(c1nnc(SCC(=O)N2CC3(C)CC2CC(C)(C)C3)o1)N(C)C (stereo not given),-1.88,"2.31 µM [falling, single point]",
CCOC(=O)C1CCCN(Cc2ccc(OCC)cc2)C1 (stereo not given),-75,,"29.1 µM [falling, single point]"
CCN(CC)c1ccc(C=Nc2cc(C)cc(C)c2)c(O)c1,-34.4,"20.6 µM [falling, partial curve]","13 µM [falling, partial curve]"
Cc1cccc2c1NC(=O)/C2=C\C(=O)c1cccs1,-42.4,"0.58 µM [rising, full curve]",
Cc1ccc(NC(=O)CCCc2nc3ccccc3c(=O)[nH]2)c(Cl)c1,-5.49,"3.66 µM [falling, single point]",
